Experimental data from PubChem BioAssay AID202 (DTP/NCI, 2004).
The list does not hold the whole screen: it gathers tests that were run many times, whatever their T/C, doses with no T/C, and many T/C values between a quarter and a half above the control. Other doses and runs of a compound stand elsewhere. T/C: endpoint of the treated group in % of that of the vehicle group. Schedule codes are those of the source, read here as Q, the interval in days (D) or hours (H), X, the number of doses. Some T/C values carry the count of animals alive at the toxicity check (mostly the fifth day); where none is given, no animal had died by that day. Some entries were tested several times; their values stand side by side, smallest first. Some T/C values are negative: the treated tumours shrank. Some doses have a count of surviving animals in place of a T/C: the source holds a T/C of zero for them, seemingly a mark for toxic or unscored doses. Survivors were counted at the toxicity check, usually on the fifth day, unless a day is given; later deaths do not show. Additions like (4×) give the number of equal values in this list.

System: HT29 xenograft, nude mice, s.c., tumor weight T/C%
Assay: NCI In Vivo Anticancer Drug Screen. Data for tumor model HT29;CX-1 Human Adenocarcinoma (MER+) (subcutaneous) in NU/NU Swiss (nude) mice
Details: T/C endpoint: optimum tumor weight change, higher T/C = larger tumour
Description: The antitumor activity of compounds was measured in mice bearing transplantable tumors. Survival or tumor size were measured and the results are expressed as the measurement made in the treated group (T) divided by the measurement made in the vehicle treated control group (C). The tumor model used in this assay is HT29;CX-1 Human Adenocarcinoma (MER+) (subcutaneous) in NU/NU Swiss (nude) mice

[1] = dose: 100.0 mg/kg/injection, schedule: Q04DX003 (ip), vehicle: Klucel (hydroxypropylcellulose) (HPC)
[2] = dose: 400.0 mg/kg/injection, schedule: Q04DX003 (ip), vehicle: Klucel (hydroxypropylcellulose) (HPC)
[3] = dose: 200.0 mg/kg/injection, schedule: Q04DX003 (ip), vehicle: Klucel (hydroxypropylcellulose) (HPC)
[4] = dose: 3.0 mg/kg/injection, schedule: Q04DX003 (ip), vehicle: saline
[5] = dose: 6.0 mg/kg/injection, schedule: Q04DX003 (ip), vehicle: saline
[6] = dose: 12.0 mg/kg/injection, schedule: Q04DX003 (ip), vehicle: saline

In the case of `CC(=O)OCC(=O)[C@@]12OC(C)(C)O[C@@H]1C[C@H]1[C@@H]3CC(C=O)=C4C=C(OCCCl)CC[C@]4(C)[C@@]3(F)[C@@H](O)C[C@@]12C`, the survivor count [1] is reported as 1 of 5 on day 40 and 3 of 5 on day 36.
In the case of `COc1cccc2c1C(=O)c1c(O)c3c(c(O)c1C2=O)C[C@@](O)(C(=O)CO)C[C@@H]3OC1CC(N)C(O)C(C)O1` (stereo partly specified), the survivor count (dose: 4.0 mg/kg/injection, schedule: Q04DX003 (ip), vehicle: water) is reported as 2 of 5 on day 36 and 2 of 5 on day 38 and the survivor count (dose: 8.0 mg/kg/injection, schedule: Q04DX003 (ip), vehicle: water) is reported as 0 of 5 on day 36 and 0 of 5 on day 38.
In the case of `Cc1c(N)nc(C(CC(N)=O)NCC(N)C(N)=O)nc1C(=O)NC(C(=O)NC(C)C(O)C(C)C(=O)NC(C(=O)NCCc1nc(-c2nc(C(=O)NCCCNC(C)c3ccccc3)cs2)cs1)C(C)O)C(OC1OC(CO)C(O)C(O)C1OC1OC(CO)C(O)C(OC(N)=O)C1O)c1cnc[nH]1` (stereo unspecified), the T/C (dose: 7.5 mg/kg/injection, schedule: Q04DX003 (ip), vehicle: saline, evaluated on day 34) is reported as 39, 40, 40 % of control [4 of 5 alive on day 36], the T/C (dose: 7.5 mg/kg/injection, schedule: Q04DX003 (ip), vehicle: saline, evaluated on day 36) is reported as 65 % of control and the T/C (dose: 7.5 mg/kg/injection, schedule: Q04DX003 (ip), vehicle: saline, evaluated on day 40) is reported as 32 % of control. The T/C (dose: 15.0 mg/kg/injection, schedule: Q04DX003 (ip), vehicle: saline, evaluated on day 34) was 5, 26, 41 [4 of 5 alive on day 36], 42 % of control [4 of 5 alive on day 36], the T/C (dose: 15.0 mg/kg/injection, schedule: Q04DX003 (ip), vehicle: saline, evaluated on day 36) was 67 % of control and the T/C (dose: 15.0 mg/kg/injection, schedule: Q04DX003 (ip), vehicle: saline, evaluated on day 40) was 3 [4 of 5 alive on day 40] and 23 % of control [4 of 5 alive on day 42]. For the same compound, the T/C (dose: 30.0 mg/kg/injection, schedule: Q04DX003 (ip), vehicle: saline, evaluated on day 34) was -1, 25, 36 % of control, the T/C (dose: 30.0 mg/kg/injection, schedule: Q04DX003 (ip), vehicle: saline, evaluated on day 36) was 33 % of control and the T/C (dose: 30.0 mg/kg/injection, schedule: Q04DX003 (ip), vehicle: saline, evaluated on day 40) was -10 and 2 % of control [4 of 5 alive on day 42]. For the same compound, the survivor count (dose: 30.0 mg/kg/injection, schedule: Q04DX003 (ip), vehicle: saline) was 3 of 5 on day 36, the T/C (dose: 60.0 mg/kg/injection, schedule: Q04DX003 (ip), vehicle: saline, evaluated on day 34) was 6 % of control [4 of 5 alive on day 36] and the survivor count (dose: 60.0 mg/kg/injection, schedule: Q04DX003 (ip), vehicle: saline) was 0 of 5 on day 36, 0 of 6 on day 36, 1 of 5 on day 36, 2 of 5 on day 40, 2 of 5 on day 42, 3 of 5 on day 36. For the same compound, the survivor count (dose: 120.0 mg/kg/injection, schedule: Q04DX003 (ip), vehicle: saline) was 0 of 5 on day 36 and 0 of 5 on day 40.
`CCN(CC)CCCC(C)Nc1c2ccc(Cl)cc2nc2ccc(OC)cc12` (stereo unspecified) was tested, and the T/C (dose: 100.0 mg/kg/injection, schedule: Q04DX003 (ip), vehicle: saline with Tween-80, evaluated on day 34) was 129 % of control and the survivor count (dose: 400.0 mg/kg/injection, schedule: Q04DX003 (ip), vehicle: saline with Tween-80) was 0 of 5 on day 36.
`CS(=O)(=O)OCCN(CCOS(C)(=O)=O)c1ccc(C=Nc2ccc(-c3csc(COc4ccccc4)n3)cc2)cc1` was tested, and the survivor count [2] was 0 of 5 on day 40.
`CCCC(=O)OCc1cc(=O)n(C)c2c3c4c(cc12)c(C)cc(=O)n4CO3` was tested, and the survivor count [1] was 2 of 5 on day 35, the survivor count [3] was 0 of 5 on day 35 and the survivor count [2] was 0 of 5 on day 35.
With `CC(C)CCCCCCCCCCCCC(=O)NCC(=O)NC1C(O)C(O)C(Nc2ncnc3nc[nH]c23)OC1C(O)CO` (stereo unspecified) the T/C (dose: 1.5 mg/kg/injection, schedule: Q04DX003 (ip), vehicle: suspension in saline, evaluated on day 41) was 144 % of control, the survivor count (dose: 6.0 mg/kg/injection, schedule: Q04DX003 (ip), vehicle: suspension in saline) was 2 of 5 on day 41 and the survivor count (dose: 12.0 mg/kg/injection, schedule: Q04DX003 (ip), vehicle: suspension in saline) was 1 of 5 on day 41. The survivor count (dose: 24.0 mg/kg/injection, schedule: Q04DX003 (ip), vehicle: suspension in saline) was 0 of 5 on day 41 (2×) and 3 of 5 on day 41.
`COC1C(O)CC(OC2CC(OC3CC(O[C@@H]4C(=O)c5c(cc6cc(OC7CC(OC8CC(O)C(O)C(C)O8)C(O)C(C)O7)c(C)c(O)c6c5O)C[C@H]4[C@H](OC)C(=O)[C@@H](O)[C@@H](C)O)OC(C)C3O)OC(C)C2O)OC1C` (stereo partly specified) was tested, and the survivor count [4] was 0 of 5 on day 38, the survivor count [5] was 0 of 5 on day 38 and the survivor count [6] was 0 of 5 on day 38.
In the case of `COc1cccc2c1C(=O)c1c(O)c3c(c(O)c1C2=O)C[C@@](O)(C(C)=O)C[C@@H]3OC1CC(N)C(O)C(C)O1` (stereo partly specified), the survivor count (dose: 4.0 mg/kg/injection, schedule: Q04DX003 (ip), vehicle: saline) is reported as 0 of 5 on day 40 and the survivor count (dose: 8.0 mg/kg/injection, schedule: Q04DX003 (ip), vehicle: saline) is reported as 0 of 5 on day 40.
For `N[C@@H](Cc1ccc(N(CCCl)CCCl)cc1)C(=O)O`, the survivor count (dose: 8.0 mg/kg/injection, schedule: Q04DX003 (ip), vehicle: suspension in saline) was 3 of 5 on day 42, the survivor count (dose: 16.0 mg/kg/injection, schedule: Q04DX003 (ip), vehicle: suspension in saline) was 0 of 5 on day 42 and the survivor count (dose: 32.0 mg/kg/injection, schedule: Q04DX003 (ip), vehicle: suspension in saline) was 0 of 5 on day 42.
In the case of `O=[N+]([O-])/C=C\c1ccc2c(c1)OCO2`, the survivor count [1] is reported as 3 of 5 on day 35, the survivor count [3] is reported as 1 of 5 on day 35 and the survivor count [2] is reported as 0 of 5 on day 35.
In the case of `CO[C@H]1C[C@](C)(O)Cc2cc3c(c(O)c21)C(=O)c1c(O)cc2c(c1C3=O)O[C@@H]1O[C@@]2(C)[C@H](O)[C@@H](N(C)C)[C@@H]1O`, the survivor count (dose: 50.0 mg/kg/injection, schedule: Q04DX003 (ip), vehicle: other) is reported as 0 of 5 on day 39 and the survivor count (dose: 100.0 mg/kg/injection, schedule: Q04DX003 (ip), vehicle: other) is reported as 0 of 5 on day 39.
`CC(=O)c1c(O)c(C)c(O)c2c1OC1=CC(=O)C(C(C)=O)C(=O)C12C` (stereo unspecified) was tested, and the survivor count (dose: 400.0 mg/kg/injection, schedule: Q01DX003 (ip), vehicle: sodium bicarbonate) was 1 of 5 on day 40.
For `O=c1[nH]cnc2n[nH]nc12`, the survivor count (dose: 800.0 mg/kg/injection, schedule: Q04DX003 (ip), vehicle: Klucel (hydroxypropylcellulose) (HPC)) was 3 of 5 on day 40.
For `CN(C)c1nc(N(C)C)nc(N(C)C)n1`, the survivor count (dose: 240.0 mg/kg/injection, schedule: Q01DX005 (ip), vehicle: Klucel (hydroxypropylcellulose) (HPC)) was 1 of 5 and the survivor count (dose: 480.0 mg/kg/injection, schedule: Q07DX005 (ip), vehicle: Klucel (hydroxypropylcellulose) (HPC)) was 1 of 5 and 3 of 5.
`CSc1cc(=O)n2c3ccccc3c3ccnc1c32` was tested, and the T/C (dose: 40.0 mg/kg/injection, schedule: Q04DX003 (ip), vehicle: saline with Tween-80, evaluated on day 33) was 139 % of control and the T/C (dose: 80.0 mg/kg/injection, schedule: Q04DX003 (ip), vehicle: saline with Tween-80, evaluated on day 33) was 142 % of control.
In the case of `CC(=O)OCC1OC(n2cc(CBr)nn2)C(OC(C)=O)C(OC(C)=O)C1OC(C)=O` (stereo unspecified), the T/C (dose: 25.0 mg/kg/injection, schedule: Q04DX003 (ip), vehicle: saline with Tween-80, evaluated on day 33) is reported as 135 % of control.
`C[C@]12CC[C@@H]3c4ccc(OC(=O)Cc5ccc(N(CCCl)CCCl)cc5)cc4CC[C@H]3[C@@H]1CC[C@@H]2OC(=O)Cc1ccc(N(CCCl)CCCl)cc1` was tested, and the survivor count (dose: 150.0 mg/kg/injection, schedule: Q04DX003 (ip), vehicle: saline with Tween-80) was 3 of 5 on day 42, the survivor count (dose: 300.0 mg/kg/injection, schedule: Q04DX003 (ip), vehicle: saline with Tween-80) was 0 of 5 on day 39 and the survivor count (dose: 600.0 mg/kg/injection, schedule: Q04DX003 (ip), vehicle: saline with Tween-80) was 2 of 5 on day 42, 3 of 5 on day 36, 3 of 5 on day 39.
With `CN1N=C(N)c2cn(C3OC(COP(=O)(O)O)C(O)C3O)c3ncnc1c23` (stereo unspecified) the survivor count (dose: 100.0 mg/kg/injection, schedule: Q04DX003 (ip), vehicle: water) was 1 of 5 on day 35 and the survivor count (dose: 200.0 mg/kg/injection, schedule: Q04DX003 (ip), vehicle: water) was 0 of 5 on day 35.
With `C[n+]1c(-c2cccc3ccccc23)c2cc(N)ccc2c2ccccc21` the survivor count [4] was 3 of 5 on day 43, the survivor count [5] was 3 of 5 on day 43 and the survivor count [6] was 0 of 5 on day 43.
`CN(C)N=Nc1ccccc1` was tested, and the survivor count [1] was 1 of 5 on day 40 and the survivor count [3] was 0 of 5 on day 40.
